# Laboratory results reported in patent US20160215305A1, “Process of Fermenting A Lignocellulosic Biomass” (priority 2015, published 2016).
# Values joined by “and” are separate entries in the source; they are usually repeats but may differ in a detail not shown here. Equal values may be shown once. The name of at least one read-out is uncertain. Some entries share one result that the patent states for a list of compounds.
# Test system: S. cerevisiae
# Assay: Batch fermentation of amino acid detoxified loblolly pine hydrolysates by Baker yeast
# Assay type: cell-based, Saccharomyces cerevisiae
# Details: hydrolysates detoxified with amino acid 0.2% w/v, pH 6.0, 60° C., 2 hours
# From the text: Loblolly pine (Pinus taeda) wood chips (1.0×1.0 cm, L×W) were collected by Forest Products Laboratory at Auburn University, located in Auburn, Ala. Dilute acid pretreatment was used to produce biomass hydrolysates in a 4.0 L Parr batch reactor (Parr Instrument Co., Moline, Ill.) as previously described (Lai, C. H., Tu, M. B., Li, M., Yu, S. Y. 2014. Remarkable solvent and extractable lignin effects on enzymatic digestibility of organosolv pretreated hardwood. Bioresource Technology, 156, 92-98). Briefly, wood chips (400 grams, dry weight) were soaked in 1% (w/w) sulfuric acid overnight (7:1 liquor/solid ratio) prior to the pretreatment, and then loaded into a reactor and treated at 170° C. for 60 minutes.
# To achieve higher ethanol titer in fermentation, loblolly pine hydrolysates were concentrated to approximately one-third of its original volume using a rotary evaporator (IKA RV10 basic) at 40° C. and 60 rotations per minute (rpm). The hydrolysates were first adjusted to pH 4.0 before evaporation. After the concentration, the sugar contents of the hydrolysates were analyzed by HPLC.
# […] The detoxification experiments were performed in a 250 mL flask and placed in a temperature-controlled water batch.
# Baker yeast (Fleischmann's), S. cerevisiae, was used for all the fermentation experiments in this study. The yeast was maintained on YDP medium containing (g/L): 20 glucose, 20 peptone, 10 yeast extract and 20 agar. Isolated colony was grown in YDP liquid medium overnight and harvested as fermentation inoculum. The yeast concentration was measured using an UV-vis spectrophotometer. Inoculum of 2.0 g/L was used for all fermentation experiments.
# Batch fermentation was carried out in 125 mL serum bottles containing 50 mL broths (untreated or detoxified hydrolysates, untreated or detoxified cinnamaldehyde sugar solution) without any additional nutrient supplement. All the fermentation broths were adjusted to pH 6 with NaOH or H2SO4 and sterilized by passing 0.2 μm sterile filters. After inoculation, the serum bottle was sealed with rubber stopper and aluminum seal, and equipped with cannulas for CO2 release. All fermentation experiments were incubated at 30° C., spun at 150 rpm in a shaker (E24, New Brunswick Scientific). Aliquots of samples were withdrawn at 0, 1, 3, 6, 9, 12, 24, 36 and 48 hours for the time course analysis of both starting material and products. Fermentation was carried out in duplicate. The volumetric ethanol productivity and initial consumption rate of glucose (RG) and mannose (RM) was calculated based on the sugar consumed in the first 6 h of fermentation as described previously (Cao, D. X., Tu, M. B., Xie, R., Li, J., Wu, Y. N., Adhikari, S. 2014. Inhibitory Activity of Carbonyl Compounds on Alcoholic Fermentation by Saccharomyces cerevisiae. Journal of Agricultural and Food Chemistry, 62(4), 918-926).
# Ethanol, acetic acid, levulinic acid, formic acid, furfural and HMF were analyzed using an Aminex HPX-87H column (300×7.8 mm) with a refractive index detector. The elution conditions were column temperature of 45° C. and flow rate of 0.6 ml/min with 5.0 mM H2SO4 as the mobile phase in a 60 min isocratic run.
Compound,"CHMF, percentage of HMF consumed at 48 h [%]","YEtOH, ethanol yield from total glucose and mannose at 48 h [g/g]","CHMF, percentage of HMF consumed at 48 h (listed as tryptophan)","YEtOH, ethanol yield from total glucose and mannose at 48 h (listed as tryptophan) [g/g]","CHMF, percentage of HMF consumed at 48 h (listed as lysine)","YEtOH, ethanol yield from total glucose and mannose at 48 h (listed as lysine) [g/g]"
"N[C@@H](Cc1c[nH]c2ccccc12)C(=O)O [Tryptophan, tryptophan]",42.12 ± 0.81,0.21 ± 0.00,39.20-96.40% and 42.12%,0.20 to 0.26,–,–
"NCCCC[C@H](N)C(=O)O [Lysine, lysine]",50.20 ± 4.97,0.26 ± 0.01,–,–,39.20-96.40% and 50.20%,0.20 to 0.26
